Data as given in PubChem BioAssay AID1259405 (NCATS, 2018)
The deposit covers about 50,000 reagents; shown is a part drawn at random. Over the whole deposit, about 4,000 (8%) are marked active. 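Mouse siRNA library applied to hamster cells; one well for each siRNA.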 Reagents against one gene are numbered here.

Aim: 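Silenced genes that increase secreted GFP made by CHO cells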 (primary screen)
Cells: Chinese hamster CHO-K1 ovary cells with stable secreted eGFP expression
Knock-down reagent: single siRNA against mouse genes, 0.8 pmol siRNA per well (2 µl of 400 nM stock)
Timing: 3 days
Measured: 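Per-well intracellular GFP measured by laser scanning cytometry, plus viability from ATP luminescence, each relative to plate median of non-targeting control wells, in %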
Reading the numbers: GFP, % of control: higher = more GFP per well, higher productivity; viability (ATP), % of control: higher = more viable cells (more ATP)
Rule for the call: 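Called active when intracellular GFP, relative to negative control, is at or above 120%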

GFP, % of control	viability (ATP), % of control	outcome	gene	siRNA no.
99.7	88.5	inactive	Slc16a4	1
58.3	53.3	inactive	Slc16a4	2
93.5	76.9	inactive	Slc16a4	3
92.9	89	inactive	Spmip5 (sperm microtubule inner protein 5)	1
80.8	98.8	inactive	Spmip5 (sperm microtubule inner protein 5)	2
78.7	128	inactive	Spmip5 (sperm microtubule inner protein 5)	3
47.8	46.5	inactive	Chgb (chromogranin B)	1
39.1	28.5	inactive	Chgb (chromogranin B)	2
89.8	72.2	inactive	Chgb (chromogranin B)	3
89.2	86.1	inactive	Emc2 (ER membrane protein complex subunit 2)	1
80.3	60	inactive	Emc2 (ER membrane protein complex subunit 2)	2
66.9	88.7	inactive	Emc2 (ER membrane protein complex subunit 2)	3
76.9	91.4	inactive	Krtap15-1 (keratin associated protein 15-1)	1
103	82	inactive	Krtap15-1 (keratin associated protein 15-1)	2
77.3	85.8	inactive	Krtap15-1 (keratin associated protein 15-1)	3
89.7	49.3	inactive	4930412M03Rik (RIKEN cDNA 4930412M03 gene)	1
77.2	37.4	inactive	4930412M03Rik (RIKEN cDNA 4930412M03 gene)	2
90.4	77.5	inactive	4930412M03Rik (RIKEN cDNA 4930412M03 gene)	3
74.7	100	inactive	Mmaa (methylmalonic aciduria (cobalamin deficiency) type A)	1
78.7	59.7	inactive	Mmaa (methylmalonic aciduria (cobalamin deficiency) type A)	2
66.6	85.2	inactive	Ewsr1 (Ewing sarcoma breakpoint region 1)	1
54.5	53	inactive	Ewsr1 (Ewing sarcoma breakpoint region 1)	2
86.4	83.1	inactive	Ewsr1 (Ewing sarcoma breakpoint region 1)	3
94.5	110	inactive	Klf5 (Kruppel-like transcription factor 5)	1
70.9	76.7	inactive	Klf5 (Kruppel-like transcription factor 5)	2
83.4	94.3	inactive	Klf5 (Kruppel-like transcription factor 5)	3

7 entries from above, reformatted.
Slc16a4 #2
- GFP, % of control: 58.3
- viability (ATP), % of control: 53.3
- outcome: inactive

Slc16a4 #3
- GFP, % of control: 93.5
- viability (ATP), % of control: 76.9
- outcome: inactive

Spmip5 (sperm microtubule inner protein 5) #1
- GFP, % of control: 92.9
- viability (ATP), % of control: 89
- outcome: inactive

Spmip5 (sperm microtubule inner protein 5) #2
- GFP, % of control: 80.8
- viability (ATP), % of control: 98.8
- outcome: inactive

Spmip5 (sperm microtubule inner protein 5) #3
- GFP, % of control: 78.7
- viability (ATP), % of control: 128
- outcome: inactive

Chgb (chromogranin B) #1
- GFP, % of control: 47.8
- viability (ATP), % of control: 46.5
- outcome: inactive

Chgb (chromogranin B) #2
- GFP, % of control: 39.1
- viability (ATP), % of control: 28.5
- outcome: inactive

Additional results:
GFP, % of control	viability (ATP), % of control	outcome	gene	siRNA no.
79.2	92.5	inactive	Itgad (integrin, alpha D)	1
146	53.2	active	Itgad (integrin, alpha D)	2
114	103	inactive	Itgad (integrin, alpha D)	3
145	95.2	active	Srsf2 (serine and arginine-rich splicing factor 2)	1
122	84.4	active	Srsf2 (serine and arginine-rich splicing factor 2)	2
103	72.3	inactive	Cptp (ceramide-1-phosphate transfer protein)	1
79.6	71.5	inactive	Cptp (ceramide-1-phosphate transfer protein)	2
83.8	90.8	inactive	Cptp (ceramide-1-phosphate transfer protein)	3
146	116	active	Prkaa1 (protein kinase, AMP-activated, alpha 1 catalytic subunit)	1
45	35.6	inactive	Prkaa1 (protein kinase, AMP-activated, alpha 1 catalytic subunit)	2
75.3	77.5	inactive	Prkaa1 (protein kinase, AMP-activated, alpha 1 catalytic subunit)	3
125	55.2	active	Tnfrsf12a (tumor necrosis factor receptor superfamily, member 12a)	1
74.5	123	inactive	Tnfrsf12a (tumor necrosis factor receptor superfamily, member 12a)	2
110	99.6	inactive	Tnfrsf12a (tumor necrosis factor receptor superfamily, member 12a)	3
71	75.8	inactive	Cpsf7 (cleavage and polyadenylation specific factor 7)	1
63.9	67.2	inactive	Cpsf7 (cleavage and polyadenylation specific factor 7)	2
32	47.5	inactive	Cpsf7 (cleavage and polyadenylation specific factor 7)	3
86.8	60.3	inactive	Ripk1 (receptor (TNFRSF)-interacting serine-threonine kinase 1)	1
75.1	63.2	inactive	Or5w12 (olfactory receptor family 5 subfamily W member 12)	1
104	40.9	inactive	Or5w12 (olfactory receptor family 5 subfamily W member 12)	2
80.5	73.9	inactive	Or5w12 (olfactory receptor family 5 subfamily W member 12)	3
81.4	93	inactive	1700018B24Rik (RIKEN cDNA 1700018B24 gene)	1
73.2	72.1	inactive	1700018B24Rik (RIKEN cDNA 1700018B24 gene)	2
94.2	96.6	inactive	1700018B24Rik (RIKEN cDNA 1700018B24 gene)	3
70.4	74.9	inactive	Hacl1 (2-hydroxyacyl-CoA lyase 1)	1
108	86.8	inactive	Hacl1 (2-hydroxyacyl-CoA lyase 1)	2
74.9	105	inactive	Hacl1 (2-hydroxyacyl-CoA lyase 1)	3
110	103	inactive	Fam187b (family with sequence similarity 187, member B)	1
94.9	80.2	inactive	Fam187b (family with sequence similarity 187, member B)	2
98.9	96.1	inactive	Fam187b (family with sequence similarity 187, member B)	3
221	98.4	active	Ncoa7 (nuclear receptor coactivator 7)	1
94	74.7	inactive	Ncoa7 (nuclear receptor coactivator 7)	2
157	133	active	Ncoa7 (nuclear receptor coactivator 7)	3
